Source: article PMC5940854, “Nitrothiophene carboxamides, a novel narrow spectrum antibacterial series: Mechanism of action and Efficacy” (Scientific Reports, 2018)

System: E. coli strain BW25113
Assay: Spontaneous resistance mutation frequency
Format: cell-based
Conditions: for resistance frequency: E. coli BW25113, plates with 2x-16x MIC

Structure (SMILES)	resistance frequency	No. of colonies retrieved/ 10^9 CFU/mL (agar plates with 2x MIC)	Resistance mutation frequency (agar plates with 2x MIC)	No. of colonies retrieved/ 10^9 CFU/mL (agar plates with 4x MIC)	Resistance mutation frequency (agar plates with 4x MIC)	No. of colonies retrieved/ 10^9 CFU/mL (agar plates with 8x MIC)	Resistance mutation frequency (agar plates with 8x MIC)	No. of colonies retrieved/ 10^9 CFU/mL (agar plates with 16x MIC)	Resistance mutation frequency (agar plates with 16x MIC)
O=C(Nc1nc(-c2ccc(F)cc2)cs1)c1ccc([N+](=O)[O-])s1 [compound 15, N-(4-(4-Fluorophenyl)thiazol-2-yl)-5-nitrothiophene-2-carboxamide]	10^−8	127	6.35E-08	79	3.95E-08	48	2.40E-08	11	5.50E-09
O=C(Nc1nc(-c2ccc(F)c(F)c2)cs1)c1ccc([N+](=O)[O-])s1 [compound 11, N-(4-(3,4-Difluorophenyl)thiazol-2-yl)-5-nitrothiophene-2-carboxamide]	10^−7			58	2.90E-08	85	4.25E-08	16	8.00E-09
